No constants are given. Whether binding was seen depends on the method and setting. Binding seen in cells or lysates may run through a third protein. These calls come from enrichment with a bait or labelling near it, and not all partners need be listed.
Target: PbAP2-FG2::GFP (GFP-fused PbAP2-FG2) (P. berghei)
Assay: affinity purification with mass spectrometry; RIME: gametocyte-enriched parasites fixed with 1% formalin, lysed in SDS lysis buffer, sonicated; anti-GFP polyclonal antibody (ab290) on Protein A magnetic beads, 12 h at 4°C; low-salt and high-salt washes; on-bead trypsin digestion, LC-MS/MS; WT parasites as negative control; four independent experiments; hits unique or more than fivefold enriched against WT

Protein sequences, listed by entry. Tags and fused reporters are not part of them. Lines headed by an entry give the natural chain unless they say otherwise; changes in a name come on top.
UniProt A0A509AQ61: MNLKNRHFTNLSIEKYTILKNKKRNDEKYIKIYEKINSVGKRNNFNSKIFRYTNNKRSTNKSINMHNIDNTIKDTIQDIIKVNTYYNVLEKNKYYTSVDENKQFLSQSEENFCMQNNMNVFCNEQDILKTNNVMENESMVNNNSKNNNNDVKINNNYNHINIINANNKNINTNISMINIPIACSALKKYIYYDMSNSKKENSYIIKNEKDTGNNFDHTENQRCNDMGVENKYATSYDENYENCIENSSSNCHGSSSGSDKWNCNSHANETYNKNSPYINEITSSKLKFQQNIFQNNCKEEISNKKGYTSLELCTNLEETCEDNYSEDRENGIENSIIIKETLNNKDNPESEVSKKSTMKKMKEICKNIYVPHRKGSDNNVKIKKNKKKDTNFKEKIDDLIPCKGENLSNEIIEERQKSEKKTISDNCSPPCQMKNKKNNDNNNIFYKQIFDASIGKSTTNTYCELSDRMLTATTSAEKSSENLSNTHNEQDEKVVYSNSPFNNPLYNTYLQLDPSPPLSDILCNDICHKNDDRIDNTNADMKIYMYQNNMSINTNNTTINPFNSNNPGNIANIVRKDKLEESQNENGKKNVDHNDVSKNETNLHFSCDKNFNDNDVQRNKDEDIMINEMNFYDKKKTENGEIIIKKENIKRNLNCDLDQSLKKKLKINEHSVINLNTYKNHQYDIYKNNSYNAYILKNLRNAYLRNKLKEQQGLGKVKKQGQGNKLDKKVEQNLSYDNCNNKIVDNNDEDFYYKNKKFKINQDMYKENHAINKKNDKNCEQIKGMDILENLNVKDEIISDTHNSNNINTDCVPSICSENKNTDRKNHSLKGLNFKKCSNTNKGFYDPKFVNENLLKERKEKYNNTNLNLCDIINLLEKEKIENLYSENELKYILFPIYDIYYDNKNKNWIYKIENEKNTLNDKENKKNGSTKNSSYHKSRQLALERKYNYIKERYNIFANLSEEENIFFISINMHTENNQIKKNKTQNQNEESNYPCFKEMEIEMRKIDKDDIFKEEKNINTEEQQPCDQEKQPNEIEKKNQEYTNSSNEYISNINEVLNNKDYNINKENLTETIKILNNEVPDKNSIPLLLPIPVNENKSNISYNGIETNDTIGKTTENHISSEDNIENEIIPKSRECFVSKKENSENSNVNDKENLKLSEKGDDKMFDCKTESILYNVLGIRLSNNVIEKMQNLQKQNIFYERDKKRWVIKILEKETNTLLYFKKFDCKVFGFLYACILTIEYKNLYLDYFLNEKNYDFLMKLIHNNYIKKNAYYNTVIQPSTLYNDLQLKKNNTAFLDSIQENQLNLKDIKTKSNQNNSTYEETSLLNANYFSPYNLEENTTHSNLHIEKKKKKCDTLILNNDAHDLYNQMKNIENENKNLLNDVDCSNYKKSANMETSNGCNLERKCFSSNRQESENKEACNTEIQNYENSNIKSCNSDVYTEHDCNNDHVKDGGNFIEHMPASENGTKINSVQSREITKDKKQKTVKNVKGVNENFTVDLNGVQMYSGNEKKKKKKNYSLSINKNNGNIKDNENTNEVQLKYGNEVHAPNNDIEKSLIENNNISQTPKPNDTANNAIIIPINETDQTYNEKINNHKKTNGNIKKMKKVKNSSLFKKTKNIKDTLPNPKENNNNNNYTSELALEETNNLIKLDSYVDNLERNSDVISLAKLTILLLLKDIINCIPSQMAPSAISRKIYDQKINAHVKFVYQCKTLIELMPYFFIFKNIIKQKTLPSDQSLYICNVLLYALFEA
UniProt A0A509AMA2: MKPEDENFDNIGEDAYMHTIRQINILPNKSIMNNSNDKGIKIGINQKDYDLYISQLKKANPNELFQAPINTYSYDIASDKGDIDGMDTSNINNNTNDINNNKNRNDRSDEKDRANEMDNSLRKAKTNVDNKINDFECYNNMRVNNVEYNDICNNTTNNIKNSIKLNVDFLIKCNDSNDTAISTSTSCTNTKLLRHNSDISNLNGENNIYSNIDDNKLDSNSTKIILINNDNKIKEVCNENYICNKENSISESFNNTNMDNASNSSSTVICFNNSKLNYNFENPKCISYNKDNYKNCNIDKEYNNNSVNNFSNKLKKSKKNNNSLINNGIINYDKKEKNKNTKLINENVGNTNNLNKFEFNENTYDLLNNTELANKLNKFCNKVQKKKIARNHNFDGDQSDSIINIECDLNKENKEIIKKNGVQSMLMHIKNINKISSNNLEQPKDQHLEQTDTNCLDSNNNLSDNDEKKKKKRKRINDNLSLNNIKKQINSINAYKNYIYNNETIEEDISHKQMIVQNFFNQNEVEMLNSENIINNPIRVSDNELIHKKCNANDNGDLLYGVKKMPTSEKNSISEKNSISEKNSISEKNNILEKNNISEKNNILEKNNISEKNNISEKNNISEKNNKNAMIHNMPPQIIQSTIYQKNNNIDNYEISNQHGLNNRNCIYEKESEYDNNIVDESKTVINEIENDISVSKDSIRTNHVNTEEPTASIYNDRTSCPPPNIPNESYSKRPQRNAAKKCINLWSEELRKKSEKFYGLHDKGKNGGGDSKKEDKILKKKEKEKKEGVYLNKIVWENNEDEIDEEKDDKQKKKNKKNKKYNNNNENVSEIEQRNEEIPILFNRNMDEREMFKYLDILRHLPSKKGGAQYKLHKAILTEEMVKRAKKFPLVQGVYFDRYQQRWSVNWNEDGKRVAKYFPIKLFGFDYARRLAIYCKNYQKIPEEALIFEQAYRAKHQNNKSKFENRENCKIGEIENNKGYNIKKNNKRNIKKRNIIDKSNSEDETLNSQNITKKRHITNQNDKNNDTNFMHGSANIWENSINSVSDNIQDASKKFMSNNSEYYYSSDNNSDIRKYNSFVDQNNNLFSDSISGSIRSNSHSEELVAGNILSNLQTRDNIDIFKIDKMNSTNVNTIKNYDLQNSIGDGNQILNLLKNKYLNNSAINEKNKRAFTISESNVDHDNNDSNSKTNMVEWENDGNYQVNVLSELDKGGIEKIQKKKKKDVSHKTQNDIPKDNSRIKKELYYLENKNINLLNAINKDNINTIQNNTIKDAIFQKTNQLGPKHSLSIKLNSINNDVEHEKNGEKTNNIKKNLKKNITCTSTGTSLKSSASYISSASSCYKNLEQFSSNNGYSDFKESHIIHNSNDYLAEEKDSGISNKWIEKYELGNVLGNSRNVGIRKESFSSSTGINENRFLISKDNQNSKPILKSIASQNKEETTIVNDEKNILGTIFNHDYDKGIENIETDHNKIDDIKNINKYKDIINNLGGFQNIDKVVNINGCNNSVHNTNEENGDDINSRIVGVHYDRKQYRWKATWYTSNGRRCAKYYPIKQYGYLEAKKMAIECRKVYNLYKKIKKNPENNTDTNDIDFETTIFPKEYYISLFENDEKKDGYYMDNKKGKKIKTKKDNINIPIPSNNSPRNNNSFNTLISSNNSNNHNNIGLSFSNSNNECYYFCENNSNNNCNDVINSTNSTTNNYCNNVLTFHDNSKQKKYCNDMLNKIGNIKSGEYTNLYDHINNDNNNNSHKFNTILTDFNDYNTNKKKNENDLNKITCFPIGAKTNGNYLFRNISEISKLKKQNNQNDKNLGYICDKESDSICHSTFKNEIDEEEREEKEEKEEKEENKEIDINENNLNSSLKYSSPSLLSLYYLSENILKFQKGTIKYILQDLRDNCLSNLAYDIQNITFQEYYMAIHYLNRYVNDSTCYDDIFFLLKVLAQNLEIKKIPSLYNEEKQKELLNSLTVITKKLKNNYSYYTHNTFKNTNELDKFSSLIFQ

Row | Substance | binding
1 | PbAP2R-2 (from UniProt A0A509AQ61) | binds
2 | PbAP2-O2 (from UniProt A0A509AMA2 1-1998) | binds

— article PMC9956629
